Test results taken from publication PMC7600006, “Dissecting the Cytochrome P450 OleP Substrate Specificity: Evidence for a Preferential Substrate” (Biomolecules, 2020).
No constants are given. Whether binding was seen depends on the method and setting.

Target: cytochrome P450 OleP (Streptomyces antibioticus) (UniProt Q59819)
Test: SEC; gel filtration on BioFox 17/1200 SEC (Knauer) in 20 mM Tris·HCl, 200 mM NaCl, pH 8.0; both purified

- binding: no binding
B1: cytochrome P450 OleP (enzyme, UniProt Q59819 1-407)
chain: MTDTHTGPTPADAVPAYPFSLPHALDLDPHYAELRRDEPVSRVRLPYGEGTAWLVTRMSDARIVLGDSRFSTAAATDPATPRMFPTPPEPDGVLAQDPPDHTRLRRLVGKAFTARRVEEMRPRVRSLVDSLLDDMVAHGSPADLVEFLAVPFPVAVICELLGVPLEDRDLFRTFSDAMLSSTRLTAAEIQRVQQDFMVYMDGLVAQRRDAPTEDLLGALALATDNDDHLTKGEIVNMGVSLLIAGHETSVNQITNLVHLLLTERKRYESLVADPALVPAAVEEMLRYTPLVSAGSFVRVATEDVELSTVTVRAGEPCVVHFASANRDEEVFDHADELDFHRERNPHIAFGHGAHHCIGAQLGRLELQEALSALVRRFPTLDLAEPVAGLKWKQGMLIRGLERQIVSW
